Results are given in words; binding and its absence hold for the method and conditions named. In cells and extracts the contact can be indirect. Some results given as binding are weak or reduced against the parent protein; the word gives no strength. For some of these results: Where a sequence is shown, tags or fusion partners need not be part of it.

Protein sequences, listed by entry. Tags and fused reporters are not part of them. Lines headed by an entry give the natural chain unless they say otherwise; changes in a name come on top.
UniProt P28799: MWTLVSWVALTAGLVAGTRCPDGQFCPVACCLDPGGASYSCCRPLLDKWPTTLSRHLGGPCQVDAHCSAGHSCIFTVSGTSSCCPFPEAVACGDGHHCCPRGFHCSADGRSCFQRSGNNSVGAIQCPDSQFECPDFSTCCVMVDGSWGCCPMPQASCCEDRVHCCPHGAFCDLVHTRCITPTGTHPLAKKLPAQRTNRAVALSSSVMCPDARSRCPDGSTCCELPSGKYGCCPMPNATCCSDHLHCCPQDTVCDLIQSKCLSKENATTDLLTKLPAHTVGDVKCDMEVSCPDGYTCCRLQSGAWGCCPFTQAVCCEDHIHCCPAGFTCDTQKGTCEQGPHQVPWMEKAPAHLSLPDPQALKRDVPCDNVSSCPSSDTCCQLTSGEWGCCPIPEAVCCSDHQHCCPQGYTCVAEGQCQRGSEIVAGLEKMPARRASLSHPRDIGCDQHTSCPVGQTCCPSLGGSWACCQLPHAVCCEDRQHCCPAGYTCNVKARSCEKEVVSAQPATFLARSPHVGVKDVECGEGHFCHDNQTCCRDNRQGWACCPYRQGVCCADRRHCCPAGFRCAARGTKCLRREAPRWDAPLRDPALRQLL
UniProt P03973: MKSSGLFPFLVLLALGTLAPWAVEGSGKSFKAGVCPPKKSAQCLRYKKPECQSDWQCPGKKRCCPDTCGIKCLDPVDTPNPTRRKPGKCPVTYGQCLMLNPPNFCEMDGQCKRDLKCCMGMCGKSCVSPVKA

The target in experiment [1] is FLAG-tagged human PEPI (aa 18-593) expressed from pCMVI-FLAG in HEK293 cells (human) (UniProt P28799). Nature of the experiment: co-immunoprecipitation from HEK293 conditioned medium (anti-FLAG IP, anti-SLPI blot).
Experiment [2] addresses recombinant human PEPI (aa 18-593) with an N-terminal FLAG-6xHis tag, purified from HEK293 conditioned medium (human) (UniProt P28799). The experiment can be described thus: co-immunoprecipitation of pure recombinant proteins.
Experiment [3] has the same target. Nature of the experiment: co-immunoprecipitation.
For experiment [4] the target is unchanged. The experiment can be described thus: reciprocal co-immunoprecipitation of pure recombinant proteins (5 pmol each).
The target in experiment [5] is T1, FLAG-tagged mouse PEPI expressed in COS-1 cells (mouse) (UniProt P28798).
T1 sequence: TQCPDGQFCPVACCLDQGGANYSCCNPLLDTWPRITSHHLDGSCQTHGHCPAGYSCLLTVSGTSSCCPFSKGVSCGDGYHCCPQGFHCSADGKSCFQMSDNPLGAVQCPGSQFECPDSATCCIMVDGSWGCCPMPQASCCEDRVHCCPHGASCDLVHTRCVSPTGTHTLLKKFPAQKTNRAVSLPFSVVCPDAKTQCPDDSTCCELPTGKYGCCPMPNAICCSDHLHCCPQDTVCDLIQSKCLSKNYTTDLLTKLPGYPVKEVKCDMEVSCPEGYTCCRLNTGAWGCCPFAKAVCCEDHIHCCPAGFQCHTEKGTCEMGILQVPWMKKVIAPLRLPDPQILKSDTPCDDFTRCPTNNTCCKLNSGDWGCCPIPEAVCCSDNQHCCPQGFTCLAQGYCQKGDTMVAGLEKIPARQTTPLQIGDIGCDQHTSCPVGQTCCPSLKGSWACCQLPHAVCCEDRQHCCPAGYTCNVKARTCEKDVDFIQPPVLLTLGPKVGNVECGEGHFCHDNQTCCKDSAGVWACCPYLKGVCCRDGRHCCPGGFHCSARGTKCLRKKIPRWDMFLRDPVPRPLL
The experiment can be described thus: co-immunoprecipitation from COS-1 conditioned medium (anti-FLAG IP, anti-SLPI blot).

The target of experiment [6] is T2, mouse PEPI terminal deletion (truncation) mutants containing EPIs G, F, B, A and C (mouse) (UniProt P28798).
T2 sequence: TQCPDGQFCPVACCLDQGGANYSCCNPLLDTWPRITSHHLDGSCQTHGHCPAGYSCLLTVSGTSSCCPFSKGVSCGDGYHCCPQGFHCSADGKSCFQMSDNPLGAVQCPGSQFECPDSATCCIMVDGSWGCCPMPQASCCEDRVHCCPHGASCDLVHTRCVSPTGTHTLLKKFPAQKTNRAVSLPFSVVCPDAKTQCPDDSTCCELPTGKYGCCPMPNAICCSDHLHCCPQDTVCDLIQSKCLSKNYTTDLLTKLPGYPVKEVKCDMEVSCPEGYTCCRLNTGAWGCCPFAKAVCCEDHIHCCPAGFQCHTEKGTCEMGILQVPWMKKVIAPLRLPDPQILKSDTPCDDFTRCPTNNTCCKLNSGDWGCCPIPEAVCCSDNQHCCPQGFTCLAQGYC
Nature of the experiment: co-immunoprecipitation after co-transfection in COS-1 cells.

Experiment [7] concerns the target T1, FLAG-tagged mouse PEPI expressed in COS-1 cells (mouse). The experiment can be described thus: co-immunoprecipitation of SLPI domain constructs with PEPI (not shown).

For the molecule “human SLPI, full-length construct (aa 1-131) expressed from pcDNA3.1 in HEK293 cells (from UniProt P03973 26-131)”, the binding result in experiment [1] is listed as “binds”. Turning to “recombinant human SLPI (Amgen) (from UniProt P03973 26-132)”, the binding result in experiment [2], in experiment [3] and in experiment [4] was “binds” throughout.

B1: mouse SLPI, full length construct (aa 1-131) expressed from pcDNA3.1 in COS-1 cells (protein)
chain: GKNDAIKIGACPAKKPAQCLKLEKPQCRTDWECPGKQRCCQDACGSKCVNPVPIRKPVWRKPGRCVKTQARCMMLNPPNVCQRDGQCDGKYKCCEGICGKVCLPPM
On to B1, for which the binding result in experiment [5] and in experiment [6] was “binds” in each case.

B2: mouse SLPI C-terminal domain construct (aa 1-25/81-131) (protein)
chain: KPVWRKPGRCVKTQARCMMLNPPNVCQRDGQCDGKYKCCEGICGKVCLPPM
On to B2, for which, in experiment [7], the binding entry is “binds”.

Source of the values: US7427595 (CORNELL RESEARCH FOUNDATION, dated 2008).
